# Test results taken from PubChem BioAssay AID1347426 (Functional Genomics Laboratory (NCATS/FGL), 2020).
# About 1,400 (4.5%) of roughly 31,000 sequences were called active.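 The calls were made as follows: active = median seed-adjusted z-score above 1 or below -1; inactive = the rest.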 The list shows a part of the results.
# Assay: Novel Modifiers of Survival Motor Neuron (SMN) Protein: Gene Identification via Genome-wide siRNA Screen;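 also: luminescence tracks full-length SMN protein made from the SMN2 reporter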
# Conditions: HEK293T SMN2-luciferase reporter, siRNA knockdown, 72 h; actives lie on both sides
# Method in brief: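 HEK293T cells stably expressing an SMN2 splicing/cDNA-luciferase reporter were reverse-transfected with a druggable-genome siRNA library and read by luminescence at 72 hours; hits defined by MAD score above 1.0 or below -1.0.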
row,Sequence,median seed-adjusted z-score
1,GGCUAUCCUGGGUUUAUUUTT against ALKBH1,inactive: -0.087
2,GUUACUACAGGACCAUUAATT against MTMR1,inactive: -0.0204
3,CCGAUCAAGUGAACAUAGATT against AKAP4,inactive: 0.116
4,UGGAGGUUCUGGAUCCGAATT against ROR2,inactive: 0
5,GGGAGGUCUUAAACAAGGUTT against DCI,inactive: 0.469
6,AGCAGUCCCUUAAUAUUGATT against WISP2,inactive: -0.0731
7,GCGCUGUGAUGUUAUUGCATT against SUCLA2,inactive: -0.21
8,GAGUCUCAUUUGUCCAAUATT against PLA2G4C,inactive: 0.331
9,CCAGCGUACUGCUUCUGUUTT against CNR1,inactive: 0.0359
10,CUAAGAUGGAUAAAUCUAATT against KERA,inactive: 0.238
11,CACGGUCACUUUCAACAUUTT against C1QBP,inactive: 0.754
12,AUAUCAGGCUGGUUUACAATT against PLA2G15,inactive: 0
13,CCAUCUUGCUGAACCUGGATT against SLC26A6,inactive: 0.316
14,GCUGCGAUCAAGUACAUUATT against ASCL3,inactive: 0.0929
15,CCUGGGCCUUUAUCAGUAATT against PHC1,inactive: -0.615
16,GCAGCAAGAAGGUAGCACATT against ZNF598,inactive: -0.303
17,GAACCAGAAUUACAACAAATT against GPR75,inactive: 0
18,GAUAUGAGAGUGCAACUAATT against DIAPH1,inactive: 0.145
19,GACAUUGAAUCUCACCGAATT against CUBN,inactive: 0.0558
20,AAUGAUACCUCUGAAGUAATT against ZNF780A,inactive: 0.298
21,CGAGGUUACAGAGACAUCATT against PCSK2,inactive: -0.704
22,CAGCAUAUCUGUUUUCUGATT against CLPS,inactive: -0.799

# Random excerpt: four entries already listed
row,Sequence,median seed-adjusted z-score
5,GGGAGGUCUUAAACAAGGUTT against DCI,inactive: 0.469
22,CAGCAUAUCUGUUUUCUGATT against CLPS,inactive: -0.799
9,CCAGCGUACUGCUUCUGUUTT against CNR1,inactive: 0.0359
17,GAACCAGAAUUACAACAAATT against GPR75,inactive: 0

# Additional entries:

row,Sequence,median seed-adjusted z-score
1,GAUGAUUGUUGGAUAUGCATT against CYB5R4,inactive: 0
2,CGAGAUGGACAUGAAGUCATT against NDUFS8,inactive: -0.467
3,GCAAGUUGGUAUUGGAAUATT against HOMEZ,inactive: -0.0614
4,GCAGACAGCUGAUGACUCUTT against ARHGEF18,inactive: 0.586
5,CCAAGAUGAGUAUAAAACATT against HRC,active: 1.06
6,GUUCCGACAAGGACACUGATT against SLC9A3R2,inactive: 0.165
7,CAGGUAAACCGGAACAAUATT against SLC11A2,inactive: -0.157
8,GGGAAAUACUGAACGCAAATT against CHRNB3,inactive: -0.0155
9,UGGUUAAUCUGAUAACUUCTT against WDFY3,inactive: -0.12
10,AUGUUAUCAUUGCUCCAUUTT against CAV2,inactive: -0.00895
11,GGUCAUUGGAUAAUUAAGATT against ZNF620,inactive: 0.172
12,GGCUACCUGCAUUCACUGATT against SGK1,inactive: -0.659
13,CCUGCCUGACGGUCACUUUTT against GAMT,inactive: -0.161
14,CCAUAGCAAUGGAGAUUGATT against ATP1A2,inactive: 0.248
15,ACUCACCACUGGUGCCUGATT against CLDN2,inactive: 0.865
16,GGAGAUUAUUGAAGAUGGATT against DNTT,inactive: 0.316
17,GAAUGUGCUCAUUCGGGAATT against AMHR2,inactive: 0.557
18,GAACCGCCUUUAACAGAUUTT against CDC5L,inactive: -0.628
19,CACUUACUCCUGACCAGUATT against B4GALT3,inactive: -0.138
20,GCACCAUCUAUGACUAUGATT against GPX5,inactive: 0.0205
21,GGACAAGUGUUAUCGCUUATT against MASTL,inactive: -0.195
22,GCAUGAGCCCAGAUGUGAATT against LIMK1,inactive: -0.428

row,Sequence,median seed-adjusted z-score
1,GCUGAAGAGUUUACCUAUATT against VWA5A,inactive: 0
2,GCGCGUCAAGCAGACUUUCTT against DUSP15,inactive: 0
3,GGACUCUGAUAGCAGUUCATT against UBE2Z,inactive: 0.0572
4,GCCUAUGAGUUUAUCAUGATT against ABCB4,inactive: 0
5,CUAGGGACCUAUUAAAAGATT against DHX30,inactive: 0.335
6,CAGCGCAAAUUUUCAACAATT against ARHGEF6,inactive: -0.0593
7,AGCUAAAUCUGGAGAUAUATT against EXOSC3,inactive: 0.569
8,GGACUUACGUGGAAGUAGATT against PLCB1,inactive: 0.0735
9,GCUAAUCAUUGAGUAUGCATT against KLHL10,inactive: 0.0708
10,GAUAGACACCCAAAUCGUATT against ADARB1,inactive: 0.375
11,GAAUGCAAGAUUUUCGAUUTT against USH2A,inactive: 0.0673
12,GGCGGUCAGUGCACAAUGATT against MXD3,inactive: 0.482
13,GGAGGAUCAAUUUAUCAGATT against VDAC2,inactive: 0.648
14,GCAACAACGGCUCCAUUUATT against SHKBP1,inactive: 0.345
15,AGAGGGUGAUAUCAAGGAATT against TAGAP,inactive: 0
16,CAGCCUUAAUGGACACGAATT against MFGE8,inactive: 0.0367
17,GCCUGGUCAAUAUCCGAAATT against RNF157,inactive: 0.0197
18,GCUCUAAGGUUACGGAAGATT against MCOLN2,inactive: -0.0234
19,GCGGGAGCAUUAUCUCAAATT against ZNF341,inactive: 0.356
20,CCAUGACUCUAGGACUACATT against CNDP1,inactive: 0.203
21,GGAGCUCAUUGAACGAUUUTT against PPP4R1,inactive: -0.911
22,GUUUAGAAGGUAUAAGGUUTT against PPA1,inactive: -0.0865

row,Sequence,median seed-adjusted z-score
1,GGAUUUGCCCUGACAAAAATT against ZRANB2,inactive: 0.441
2,CAUCUUCACUCAUGCAAGATT against GBP6,inactive: -0.0703
3,GGAGUUGCAGAAAUCCUUUTT against POLH,inactive: -0.446
4,AGCAAUAACUCGUGUAGCATT against EFNA2,inactive: -0.314
5,GCCUUAAGUUGGAGAGUAATT against ZNF215,inactive: 0.485
6,CAAUAUGAAGGUCGAAUUATT against TPR,active: -1.03
7,CGAUCUGAGGAAUAUCAAUTT against TTLL6,inactive: -0.661
8,AGACGGUGGUGCCUCAAAATT against ZNF496,inactive: -0.971
9,GGGCAGUUCUUGCAACCAUTT against ALDH1A2,inactive: 0.564
10,CAAUAGGAUUGGUCACCAATT against PNPT1,inactive: 0.0729
11,CCAGUGUAUUAGUAAGAGUTT against PLCH1,inactive: -0.00634
12,GGUCAGAUCAUUUGAUUCATT against RAB9A,inactive: 0.247
13,GCAUCAUCCAGAACACGGATT against ARHGEF18,inactive: 0.586
14,GCGGCAUGCUGGUAAAUCATT against PRDM10,inactive: 0.344
15,AGAUCGACAUGUUUCUCAATT against ZBED1,inactive: 0.0567
16,GGACAGACUCGUCUAAUCATT against PLAA,inactive: -0.192
17,CACAGGAAAUUGUUCGGCATT against LIN9,inactive: 0
18,CUUACUCUUUAGCUCAAAATT against PCDHB1,inactive: 0.342
19,GAGUCUGUUUUACGACAAATT against TMPRSS11D,inactive: -0.0643
20,ACAAAUGUCUGAAAGUCUUTT against ZNF181,inactive: -0.154
21,AGGUCUCAGAUGAAGCGGUTT against PPM1B,inactive: 0
22,GACAAAACAAUGAAGCAGATT against GFM2,inactive: 0.26

# Quoted from the listing:
# median seed-adjusted z-score with CUUACUCUUUAGCUCAAAATT against PCDHB1 is entered as inactive: 0.342
# median seed-adjusted z-score with CCAGUGUAUUAGUAAGAGUTT against PLCH1 is entered as inactive: -0.00634

# Continued.

row,Sequence,median seed-adjusted z-score
1,GCAAUUCCCAAGAUCCUUATT against LAMB1,active: 1.07
2,GGUCCUAAUCUGCAGCUGATT against COG4,inactive: -0.508
3,CCAUCUCGACUGACAAGAATT against TNNI3K,inactive: -0.178
4,CACCAGGACCAGUUAAAAATT against MVD,inactive: -0.561
5,AAUUCUUCACGGUAAGAAATT against RAB6A,inactive: 0.102
6,GAACCUGCUUUACUAUACATT against TRPV2,inactive: -0.227
7,CGACAAGUCUUCGACCUGATT against DGKZ,inactive: 0
8,GGACUGUUUUUGAUACUAATT against FKBP3,inactive: -0.102
9,GGACCACAGUCAAGACGAUTT against CEACAM1,inactive: -0.211
10,CCGACGGGAUGGAAUAUUUTT against ZBTB39,inactive: -0.209
11,GAAUCAACUUAACAAAACATT against OXTR,inactive: -0.557
12,GAAUUGGAGAGGCAACAAATT against LMO7,inactive: 0.417
13,GCAACGCAGUUCGGAGUUATT against CADPS2,inactive: -0.0213
14,GGACAUAGGCACAAACUAATT against TNKS2,inactive: 0.0545
15,GCUCAUCCUGUCUCAUAAATT against EIF2B3,inactive: -0.271
16,GGCUGUAAACUGCGCAUCATT against APOBEC2,inactive: 0.232
17,CACCUAUUUUGAAGGUAGATT against ZNF518A,inactive: -0.252
18,CCAUCACCAGAAUCGCUAUTT against P11,inactive: 0.14
19,CAUCCAGACCUGUUCCAAATT against SCG2,inactive: 0.155
